According to patent US20220291237A1 (priority 2021, published 2022):
Entries after “also recorded” stand apart in the source; their conditions may differ. Where two headings read alike, the source gives them in different places. At least one compound was matched to its structure with a doubt left.

Tests used:
Design in all cases: species or system human
CXCL1 = system: CXCL1
IFNG = system: IFNG
TNFSF10 = details: GENE TNFSF10; beneficial (lowers) or detrimental (raises) to iAge
[1] = GENE CXCL1, beneficial (lowers) or detrimental (raises) to iAge
[2] = GENE IFNG, beneficial (lowers) or detrimental (raises) to iAge

For CN1CCN(C2=Nc3cc(Cl)ccc3Nc3ccccc32)CC1 [Clozapine], which EFFECT (CXCL1) is on record?
The EFFECT was “Detrimental”.

And the EFFECT (IFNG)?
The EFFECT was “Detrimental”.

Which results are given for COc1cc(/C=C/C(=O)CC(=O)/C=C/c2ccc(O)c(OC)c2)ccc1O [Curcumin]?
EFFECT (CXCL1; [1]): Detrimental; EFFECT (TNFSF10): Detrimental

C[C@@H]1C[C@H]2[C@@H]3CCC4=CC(=O)C=C[C@]4(C)[C@@]3(F)[C@@H](O)C[C@]2(C)[C@@]1(O)C(=O)CO [Dexamethasone, reference compound] was tested. Which EFFECT (IFNG; [2]) did it give?
Its EFFECT is “Detrimental”.

What does the source list for C[C@]12CC[C@@H]3c4ccc(O)cc4CC[C@H]3[C@@H]1CC[C@@H]2O [Estradiol, reference compound]?
EFFECT (CXCL1; [1]): Beneficial; EFFECT (TNFSF10): Detrimental; also recorded: Beneficial

Which EFFECT (CXCL1) does the source give for C[C@H]1C[C@@H]2[C@H]([C@@H](O)C[C@@]3(C)[C@H]2CC[C@]3(O)C(=O)CO)[C@@]2(C)C=CC(=O)C=C12 [Methylprednisolone] here?
Its EFFECT is “Detrimental”.

For CCC(C)(C)C(=O)O[C@H]1C[C@@H](C)C=C2C=C[C@H](C)[C@H](CC[C@@H]3C[C@@H](O)CC(=O)O3)[C@H]21 [Simvastatin, reference compound], which EFFECT (IFNG; [2]) is on record?
Its EFFECT is “Beneficial”.

For C[C@H](CCC(=O)O)[C@H]1CC[C@H]2[C@@H]3[C@@H](O)C[C@@H]4C[C@H](O)CC[C@]4(C)[C@H]3CC[C@]12C [Ursodeoxycholic acid], which EFFECT (CXCL1; [1]) is on record?
The EFFECT was “Beneficial”.
